Consider two molecules from publication PMC6449406, “Classification of the human phox homology (PX) domains based on their phosphoinositide binding specificities” (Nature Communications, 2019).

These are yes or no findings as the source states them, for the method shown. Some entries that bind do so weakly or less than the wild type.

The target of assay [1] is T1, SNX32 PX domain (human) (UniProt Q86XE0).
T1 sequence: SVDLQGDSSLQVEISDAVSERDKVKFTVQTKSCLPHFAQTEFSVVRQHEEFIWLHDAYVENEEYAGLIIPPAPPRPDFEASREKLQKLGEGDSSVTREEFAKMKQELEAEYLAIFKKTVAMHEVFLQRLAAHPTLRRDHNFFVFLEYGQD
Kind of assay: crystal structure; SNX32 PX domain (12 mg/ml) mixed with the IncE peptide at a 1:2 molar ratio of protein to peptide, 1 h on ice; crystals in 20% PEG 8000, 0.1 M TRIS (pH 8.0), 0.01 M MgCl2, 20 °C; both purified.

For assay [2], the target named is SNX15 PX domain (human) (UniProt Q9NRS6). As to the kind of experiment: crystal structure; SNX15 PX domain alone, two crystal forms (form 1: 100 mM Tris pH 8.5, 200 mM LiSO4, 24% PEG4000, 10% glycerol; form 2: 4 M NaCl, 0.1 Tris pH 8.5, 30 mM IP6), 20 °C; both purified.

B1: IncE peptide (peptide)
peptide: PANGPAVQFFKGKNGSADQVILVTQ
As to B1, the binding result in assay [1] is listed as “binds”.

B2: SNX15 PX domain (domain or fragment, human)
chain: MSRQAKDDFLRHYTVSDPRTHPKGYTEYKVTAQFISKKDPEDVKEVVVWKRYSDFRKLHGDLAYTHRNLFRRLEEFPAFPRAQVFGRFEASVIEERRKGAEDLLRFTVHIPALNNSPQLKEFFRGG
notes: source: E. coli BL21(DE3)/pLysS, purified (glutathione-Sepharose, thrombin cleavage, size exclusion chromatography); not shown: GST, N-terminal, cleaved
Consider B2, for which, in assay [2], the binding result is “binds”.
